According to publication doi:10.1101/2021.10.01.462723:
These are yes or no findings as the source states them, for the method shown. Binding seen in cells or lysates may run through a third protein. Some results given as binding are weak or reduced against the parent protein; the word gives no strength.

Sequences of proteins named here, by UniProt entry; tags and fusion partners are left off.
UniProt P49792: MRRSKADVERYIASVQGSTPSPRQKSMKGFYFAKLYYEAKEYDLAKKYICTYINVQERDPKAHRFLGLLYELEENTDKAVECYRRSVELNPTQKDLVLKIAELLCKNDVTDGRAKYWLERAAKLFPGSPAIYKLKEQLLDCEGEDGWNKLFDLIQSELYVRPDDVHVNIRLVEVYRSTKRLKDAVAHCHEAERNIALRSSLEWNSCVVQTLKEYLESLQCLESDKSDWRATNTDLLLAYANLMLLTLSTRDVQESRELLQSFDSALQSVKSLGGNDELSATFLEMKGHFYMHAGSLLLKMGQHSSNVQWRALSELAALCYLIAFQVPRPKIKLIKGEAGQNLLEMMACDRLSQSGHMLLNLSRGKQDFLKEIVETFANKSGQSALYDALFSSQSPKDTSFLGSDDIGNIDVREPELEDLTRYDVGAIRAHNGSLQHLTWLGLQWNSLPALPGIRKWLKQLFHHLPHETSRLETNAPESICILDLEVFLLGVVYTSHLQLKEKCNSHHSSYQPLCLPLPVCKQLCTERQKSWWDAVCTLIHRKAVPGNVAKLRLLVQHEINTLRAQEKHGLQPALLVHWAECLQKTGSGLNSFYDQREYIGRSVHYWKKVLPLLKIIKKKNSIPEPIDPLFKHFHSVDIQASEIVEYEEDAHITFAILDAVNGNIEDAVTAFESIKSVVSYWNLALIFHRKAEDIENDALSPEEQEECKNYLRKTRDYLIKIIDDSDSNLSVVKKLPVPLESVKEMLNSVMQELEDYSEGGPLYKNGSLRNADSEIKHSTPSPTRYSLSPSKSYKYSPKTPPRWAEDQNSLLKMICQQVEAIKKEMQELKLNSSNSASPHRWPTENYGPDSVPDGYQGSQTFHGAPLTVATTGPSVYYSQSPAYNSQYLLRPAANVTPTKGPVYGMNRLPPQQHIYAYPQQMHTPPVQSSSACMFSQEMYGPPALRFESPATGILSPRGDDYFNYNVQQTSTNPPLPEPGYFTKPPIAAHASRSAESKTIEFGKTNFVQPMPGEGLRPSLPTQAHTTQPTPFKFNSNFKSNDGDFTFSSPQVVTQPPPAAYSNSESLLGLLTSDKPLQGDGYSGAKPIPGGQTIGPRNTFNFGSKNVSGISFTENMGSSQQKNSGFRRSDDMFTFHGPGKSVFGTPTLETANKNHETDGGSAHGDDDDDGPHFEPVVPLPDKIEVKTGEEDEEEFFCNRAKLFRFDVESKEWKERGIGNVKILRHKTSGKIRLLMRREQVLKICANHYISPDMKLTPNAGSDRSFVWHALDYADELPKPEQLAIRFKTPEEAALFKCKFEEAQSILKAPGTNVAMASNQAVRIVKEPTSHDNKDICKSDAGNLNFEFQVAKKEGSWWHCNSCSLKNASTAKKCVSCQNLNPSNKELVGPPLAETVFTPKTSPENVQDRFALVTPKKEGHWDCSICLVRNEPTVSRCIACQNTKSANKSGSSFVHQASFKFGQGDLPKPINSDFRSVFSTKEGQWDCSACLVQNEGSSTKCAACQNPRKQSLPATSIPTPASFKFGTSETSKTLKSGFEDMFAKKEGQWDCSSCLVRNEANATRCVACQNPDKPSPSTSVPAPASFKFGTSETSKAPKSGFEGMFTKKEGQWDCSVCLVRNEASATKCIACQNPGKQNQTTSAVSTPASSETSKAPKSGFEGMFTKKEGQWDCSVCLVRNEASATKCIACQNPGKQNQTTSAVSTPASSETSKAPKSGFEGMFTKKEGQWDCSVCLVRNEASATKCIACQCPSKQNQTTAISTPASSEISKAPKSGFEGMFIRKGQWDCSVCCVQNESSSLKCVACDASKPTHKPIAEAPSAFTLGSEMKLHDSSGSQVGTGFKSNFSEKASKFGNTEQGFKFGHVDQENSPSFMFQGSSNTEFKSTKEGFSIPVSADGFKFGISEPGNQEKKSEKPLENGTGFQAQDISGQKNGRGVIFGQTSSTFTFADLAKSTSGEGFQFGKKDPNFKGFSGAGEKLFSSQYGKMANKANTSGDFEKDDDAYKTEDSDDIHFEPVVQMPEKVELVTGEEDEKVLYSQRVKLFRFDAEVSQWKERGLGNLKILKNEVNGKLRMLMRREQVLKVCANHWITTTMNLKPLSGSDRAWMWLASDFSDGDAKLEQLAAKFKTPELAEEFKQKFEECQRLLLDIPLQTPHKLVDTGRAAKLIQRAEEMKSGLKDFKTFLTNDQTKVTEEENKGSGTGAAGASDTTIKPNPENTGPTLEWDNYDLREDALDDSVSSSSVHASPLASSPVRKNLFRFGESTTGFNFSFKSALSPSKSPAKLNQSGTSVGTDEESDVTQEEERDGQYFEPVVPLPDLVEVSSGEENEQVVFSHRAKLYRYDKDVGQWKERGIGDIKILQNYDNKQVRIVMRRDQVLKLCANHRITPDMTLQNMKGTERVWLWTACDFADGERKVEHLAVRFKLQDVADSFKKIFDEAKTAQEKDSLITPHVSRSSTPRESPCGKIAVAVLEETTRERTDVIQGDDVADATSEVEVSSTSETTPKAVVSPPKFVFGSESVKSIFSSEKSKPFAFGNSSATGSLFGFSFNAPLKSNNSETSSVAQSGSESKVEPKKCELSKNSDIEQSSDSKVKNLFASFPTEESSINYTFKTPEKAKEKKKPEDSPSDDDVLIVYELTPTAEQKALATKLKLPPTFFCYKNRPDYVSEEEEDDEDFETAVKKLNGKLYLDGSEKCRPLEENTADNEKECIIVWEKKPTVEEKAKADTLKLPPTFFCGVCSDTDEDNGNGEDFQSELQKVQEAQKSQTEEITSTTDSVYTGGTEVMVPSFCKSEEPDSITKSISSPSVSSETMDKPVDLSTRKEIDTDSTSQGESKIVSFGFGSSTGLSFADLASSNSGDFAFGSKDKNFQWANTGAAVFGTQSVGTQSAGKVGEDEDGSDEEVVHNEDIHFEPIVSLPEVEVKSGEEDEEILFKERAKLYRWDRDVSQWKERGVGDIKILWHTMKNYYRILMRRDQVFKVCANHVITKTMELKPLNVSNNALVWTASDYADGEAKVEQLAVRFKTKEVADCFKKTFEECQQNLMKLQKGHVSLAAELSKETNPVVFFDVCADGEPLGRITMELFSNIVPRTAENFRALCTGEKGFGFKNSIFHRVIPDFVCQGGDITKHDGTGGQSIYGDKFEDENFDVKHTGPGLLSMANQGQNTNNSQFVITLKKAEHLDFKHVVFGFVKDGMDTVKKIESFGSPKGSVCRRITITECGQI
UniProt O95292: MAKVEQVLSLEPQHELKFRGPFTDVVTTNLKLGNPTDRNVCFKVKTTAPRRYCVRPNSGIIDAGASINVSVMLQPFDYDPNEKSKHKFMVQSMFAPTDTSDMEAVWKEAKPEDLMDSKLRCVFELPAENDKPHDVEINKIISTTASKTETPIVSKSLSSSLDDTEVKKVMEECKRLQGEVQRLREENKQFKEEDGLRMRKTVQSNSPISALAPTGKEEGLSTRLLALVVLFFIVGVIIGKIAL
UniProt Q14573: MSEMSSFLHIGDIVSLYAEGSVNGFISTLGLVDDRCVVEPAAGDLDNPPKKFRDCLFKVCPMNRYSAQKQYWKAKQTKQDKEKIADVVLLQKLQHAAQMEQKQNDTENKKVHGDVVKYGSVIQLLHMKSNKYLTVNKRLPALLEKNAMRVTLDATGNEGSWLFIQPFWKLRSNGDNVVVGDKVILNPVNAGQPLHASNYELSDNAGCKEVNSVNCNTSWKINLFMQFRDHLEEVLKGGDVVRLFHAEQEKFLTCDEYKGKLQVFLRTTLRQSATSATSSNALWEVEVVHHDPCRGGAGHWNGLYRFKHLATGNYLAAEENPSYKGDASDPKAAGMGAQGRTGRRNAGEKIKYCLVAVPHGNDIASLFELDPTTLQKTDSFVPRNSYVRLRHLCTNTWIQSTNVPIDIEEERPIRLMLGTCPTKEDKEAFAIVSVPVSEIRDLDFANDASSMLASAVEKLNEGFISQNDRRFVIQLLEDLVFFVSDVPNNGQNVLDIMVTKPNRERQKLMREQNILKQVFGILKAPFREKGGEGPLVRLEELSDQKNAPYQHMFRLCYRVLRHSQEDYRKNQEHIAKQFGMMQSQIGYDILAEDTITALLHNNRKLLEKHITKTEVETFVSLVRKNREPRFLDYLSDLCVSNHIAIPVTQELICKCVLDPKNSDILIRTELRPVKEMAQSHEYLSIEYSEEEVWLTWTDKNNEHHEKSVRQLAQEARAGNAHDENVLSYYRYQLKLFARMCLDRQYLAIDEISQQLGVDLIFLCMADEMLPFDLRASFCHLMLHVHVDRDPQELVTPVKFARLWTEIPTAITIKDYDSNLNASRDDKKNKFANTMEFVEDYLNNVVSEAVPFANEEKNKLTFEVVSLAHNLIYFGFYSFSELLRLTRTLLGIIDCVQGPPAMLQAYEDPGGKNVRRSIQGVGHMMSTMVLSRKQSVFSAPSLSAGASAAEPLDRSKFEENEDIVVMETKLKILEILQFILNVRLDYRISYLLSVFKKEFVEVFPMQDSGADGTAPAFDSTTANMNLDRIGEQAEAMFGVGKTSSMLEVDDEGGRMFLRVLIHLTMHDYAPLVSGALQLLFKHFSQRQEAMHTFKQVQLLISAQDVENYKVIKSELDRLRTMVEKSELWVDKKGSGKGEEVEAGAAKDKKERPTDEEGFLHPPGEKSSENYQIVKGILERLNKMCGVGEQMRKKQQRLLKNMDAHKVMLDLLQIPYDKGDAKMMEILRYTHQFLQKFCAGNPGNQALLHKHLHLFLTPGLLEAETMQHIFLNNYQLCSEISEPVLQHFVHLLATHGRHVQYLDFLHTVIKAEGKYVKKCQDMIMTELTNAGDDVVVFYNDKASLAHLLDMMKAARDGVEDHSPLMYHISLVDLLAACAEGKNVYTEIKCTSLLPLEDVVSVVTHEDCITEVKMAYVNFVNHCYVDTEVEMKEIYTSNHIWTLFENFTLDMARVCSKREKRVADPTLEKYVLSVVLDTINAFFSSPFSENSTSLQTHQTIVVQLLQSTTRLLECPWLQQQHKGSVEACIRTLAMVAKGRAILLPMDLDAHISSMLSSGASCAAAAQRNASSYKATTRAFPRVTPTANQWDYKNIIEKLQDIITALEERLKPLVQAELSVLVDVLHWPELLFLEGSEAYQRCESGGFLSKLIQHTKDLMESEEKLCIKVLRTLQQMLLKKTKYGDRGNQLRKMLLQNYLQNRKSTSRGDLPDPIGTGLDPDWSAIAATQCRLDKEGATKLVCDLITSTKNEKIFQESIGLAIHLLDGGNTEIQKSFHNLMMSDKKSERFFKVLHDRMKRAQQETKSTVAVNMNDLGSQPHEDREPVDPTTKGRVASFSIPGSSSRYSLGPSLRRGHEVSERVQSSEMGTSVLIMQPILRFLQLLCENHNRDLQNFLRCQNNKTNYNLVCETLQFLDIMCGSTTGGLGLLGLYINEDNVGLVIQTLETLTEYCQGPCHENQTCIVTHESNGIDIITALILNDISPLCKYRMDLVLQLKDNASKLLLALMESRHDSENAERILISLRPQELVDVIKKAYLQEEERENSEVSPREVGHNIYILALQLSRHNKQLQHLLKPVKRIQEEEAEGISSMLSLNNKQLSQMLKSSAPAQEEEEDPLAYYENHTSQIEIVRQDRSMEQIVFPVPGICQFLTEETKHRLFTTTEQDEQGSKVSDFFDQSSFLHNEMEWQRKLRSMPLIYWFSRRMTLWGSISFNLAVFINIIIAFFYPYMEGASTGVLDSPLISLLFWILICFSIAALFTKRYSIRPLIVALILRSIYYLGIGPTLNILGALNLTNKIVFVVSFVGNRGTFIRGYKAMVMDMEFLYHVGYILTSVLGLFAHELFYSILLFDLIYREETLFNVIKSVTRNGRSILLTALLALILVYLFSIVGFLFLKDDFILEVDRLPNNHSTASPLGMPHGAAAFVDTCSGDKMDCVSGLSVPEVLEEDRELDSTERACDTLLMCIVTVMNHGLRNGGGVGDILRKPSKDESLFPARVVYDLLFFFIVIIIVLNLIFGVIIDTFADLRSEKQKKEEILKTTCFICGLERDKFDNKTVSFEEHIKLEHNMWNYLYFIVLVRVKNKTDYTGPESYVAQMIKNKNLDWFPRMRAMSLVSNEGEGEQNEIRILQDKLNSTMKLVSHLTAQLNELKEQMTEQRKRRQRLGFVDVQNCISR

Legend:
[1] = biological target: Nup358 (human (endogenous in HeLa)) (UniProt P49792); experiment: proximity ligation
[2] = biological target: Nup358 (human (endogenous in HeLa)) (UniProt P49792); experiment: co-IP
[3] = biological target: Nup358 (human (endogenous in HEK293T)) (UniProt P49792); experiment: co-IP
[4] = biological target: VAPB (human (endogenous in HeLa)) (UniProt O95292); experiment: proximity ligation
[5] = biological target: T1, PTPIP51 (human (endogenous in HeLa)) (UniProt Q96TC7); experiment: proximity ligation
T1 sequence: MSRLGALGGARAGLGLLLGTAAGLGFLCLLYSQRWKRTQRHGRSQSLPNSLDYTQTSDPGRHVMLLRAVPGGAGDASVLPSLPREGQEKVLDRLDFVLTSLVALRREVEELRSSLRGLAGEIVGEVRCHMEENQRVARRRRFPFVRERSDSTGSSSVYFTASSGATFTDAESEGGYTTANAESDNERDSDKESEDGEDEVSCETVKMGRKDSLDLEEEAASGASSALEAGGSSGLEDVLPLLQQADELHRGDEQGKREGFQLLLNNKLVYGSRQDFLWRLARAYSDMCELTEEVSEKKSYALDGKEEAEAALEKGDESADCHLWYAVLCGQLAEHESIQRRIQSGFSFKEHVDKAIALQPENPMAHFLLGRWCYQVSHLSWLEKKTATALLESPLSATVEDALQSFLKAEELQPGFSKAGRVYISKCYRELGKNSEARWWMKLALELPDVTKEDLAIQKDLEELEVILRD

[6] = biological target: T1, PTPIP51 (human (endogenous in HeLa)); experiment: co-IP

IP3R3 (from UniProt Q14573 1-2671)
binding [1]: binds
binding [2]: binds

myc-VAPB (from UniProt O95292 1-243)
binding [3]: binds

Nup358 (from UniProt P49792 1-3224)
binding [4]: binds

VAPB (from UniProt O95292 1-243)
binding [5]: binds
binding [6]: binds
